Experimental data: PubChem BioAssay AID1259254 (NCATS, 2017)
Screen: 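Finding genes that stop cells copying their DNA twice in one cycle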 (primary screen). System: human HCT116 colorectal cancer cells. Reagent: single siRNA against human genes. Duration: 3 days. Read-out: 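Nuclei stained with Hoechst and imaged; cell-cycle phase assigned by DNA content; G2 share scaled per plate, non-targeting siRNA 0%, GMNN siRNA 100%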. Reading the numbers: G2 robust z-score and G2 cells, % of GMNN control: higher = more G2 cells, more excess DNA replication; raw share of cells in G2: higher = larger share of cells with G2 DNA content. Rule for the call: 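An siRNA counts as active if its G2 robust z-score lies at least 5 MADs above the screen median; here such calls match roughly 38% of GMNN control or more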.
This is a random part of about 59,000 reagents. Over the whole deposit, about 1,550 (2.6%) were called active. 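G2 share is only a proxy for re-replication; each gene was hit by three separate siRNAs, and active genes were retested.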 Raw values are not corrected between plates. Unmarked entries are inactive. Reagents against one gene are numbered here. Not stated in the record: the amount of reagent.

no.	target gene	siRNA no.	G2 robust z-score	G2 cells, % of GMNN control	raw share of cells in G2 (%)
1	PSMB2	1	3.1	24.8	14.2
2	PSMB2	2	1.53	13.7	9.76
3	PSMB2	3	2.95	23.8	12.8
4	LPAR3	1	0.0959	3.64	7.14
5	LPAR3	2	-0.0399	2.69	5.46
6	LPAR3	3	-0.065	2.51	4.04
7	MED19	1	-0.0941	2.31	4.41
8	MED19	2	-0.303	0.836	3.42
9	MED19	3	1.69	14.9	7.94
10	APBB1IP	1	-1.43	-7.11	1.06
11	APBB1IP	2	-0.505	-0.586	4.02
12	APBB1IP	3	-0.314	0.755	3.44
13	NFU1	1	-0.956	-3.76	2.07
14	NFU1	2	0.47	6.28	6.25
15	NFU1	3	-0.561	-0.979	4.18
16	HEPH	1	-0.42	0.0103	3.2
17	HEPH	2	0.761	8.32	8.13
18	HEPH	3	-1.23	-5.67	3.06

3 of these entries, reformatted:
APBB1IP #2
- G2 robust z-score: -0.505
- G2 cells, % of GMNN control: -0.586
- raw share of cells in G2 (%): 4.02

APBB1IP #3
- G2 robust z-score: -0.314
- G2 cells, % of GMNN control: 0.755
- raw share of cells in G2 (%): 3.44

NFU1 #1
- G2 robust z-score: -0.956
- G2 cells, % of GMNN control: -3.76
- raw share of cells in G2 (%): 2.07

Additional reagents follow:
no.	target gene	siRNA no.	G2 robust z-score	G2 cells, % of GMNN control	raw share of cells in G2 (%)
19	XBP1	1	0.916	9.41	7.2
20	XBP1	2	0.216	4.49	6.95
21	XBP1	3	-0.18	1.7	3.72
22	ZNF724	1	0.487	6.39	6.09
23	ZNF724	2	-0.897	-3.34	2.15
24	ZNF724	3	1.85	16	8.55
25	CAPNS1	1	-0.652	-1.62	4.99
26	CAPNS1	2	0.167	4.14	6.37
27	CAPNS1	3	0.317	5.2	5.85
28	XPO6	1	-1	-4.08	3.39
29	XPO6	2	-0.522	-0.709	3.84
30	XPO6	3	0.0158	3.08	4.33
